According to patent EP4282435A1, “FORMULATIONS OF ACTIVE PHARMACEUTICAL INGREDIENTS AND EXCIPIENTS IN ICELLS VIA HYDROPHOBIC ION PAIRING” (Danmarks Tekniske Universitet, priority 2022, dated 2023):

From the text: The chloroform phase was isolated, transferred to a new vial and subsequently chloroform was dried under a gentle flow of nitrogen.

solubility in ICell: insoluble
SMILES: CCC[C@@H]1C[C@@H](C(=O)N[C@@H]([C@H]2O[C@H](SC)[C@H](O)[C@@H](O)[C@H]2O)[C@H](C)Cl)N(C)C1 [clindamycin, Clindamycin monohydrate HCI, reference compound]
